{
  "source": "patent US20040228866A1",
  "about": "“Suppressor genes” (Ludwig Institute for Cancer Research, priority 2000, published 2004)",
  "assay_type_in_all_cases": "cell-based",
  "key": {"Saos-2 cells": {"tested_on": "Saos-2 cells", "assay": "Apoptosis by flow cytometry (CD20-gated, sub-G1 DNA content) in transfected Saos-2 cells", "settings": "p53 null, 7.5-25 μg plasmid, 36 hours after transfection", "experimental": "Apoptosis was identified by the expression of the co-transfected cell surface marker CD20, as described in Samuels-Lev et al. (Mol. Cell 8:781-94, 2001, herein incorporated by reference).\nThe number of apoptotic cells was determined using the methods described in Example 6.\nCells (10^6) were plated 24-48 hours prior to transfection in 10 cm plates. Cells were grown in DMEM supplemented with 10% FCS and transfected with 2 μg of a plasmid expressing CD20 as a transfection marker. Increasing amounts of ASPP1 and ASPP2 were transfected (7.5 μg, 15 μg and 25 μg). 36 hours after the transfection, both attached and floating cells were harvested and analysed using flow cytometry as follows. The transfected cells were gated based on the expression of CD20. The percentage of apoptotic cells was measured by the accumulation of cells with a sub-G1 DNA content derived from at least three individual experiments.\nThe transfected cells were analyzed by flow cytometry as described in Example 6."}, "p53": {"target": "T1, p53 (Homo sapiens, UniProt P04637)", "T1 construct": "expressed in transfected cells", "assay": "Transient luciferase reporter assay of p53 transactivation function in Saos-2 cells", "settings": "co-expression with p53, Bax reporter, FIGS. 2A and 2B", "experimental": "The amount of luciferase expression was determined as previously described in Samuels-Lev et al. (Mol. Cell 8:781-94, 2001, herein incorporated by reference).\nThe amount of transactivation function was determined as described in Example 4.\nTo determine the amount of protein expression, Saos-2 cells (5×10^5) were plated 24 hours prior to transfection in 6 cm dishes. […] To determine the amount of gene activation, after transfection, the cells were lysed in Reporter Lysis Buffer 16-24 hours post-wash and assayed using the Luciferase Assay kit (Promega, Wis.). The fold activation of a particular reporter was determined by the activity of the transfected plasmid above the activity of vector alone.\nThe expression level of transfected proteins was detected using 40 μg of the respective lysates using the antibodies V5, DX.5410, DO1, 4A4 and p73. […] Results were derived from at least three independent experiments."}, "H1299 cells": {"tested_on": "H1299 cells", "assay": "Apoptosis by flow cytometry (CD20-gated, sub-G1 DNA content) in transfected H1299 cells", "settings": "p53 null, 7.5-25 μg plasmid, 36 hours after transfection"}},
  "note": "Some results were stated once for a whole list of compounds, not compound by compound.",
  "data": [
    {"molecule": "ASPP1: Apoptosis Stimulating Protein 1, protein of SEQ ID NO: 2, expressed from a transfected plasmid (protein, listed as Homo sapiens) MMPMILTVFLSNNEQILTEVPITPETTCRDVVEFCKEPGEGSCHLAEVWRGNERPIPFDHMMYEHLQIWGPRREEVKFFLRHEDSPTENSEQGGRQTQEQRTQRNVINVPGDKRTEYGVGNPRVELTLSELQDMAARQQQQIENQQQMLVAKEQRLHFLKQQERRQQQSISENEKLQKLKERVEAQENKLKKIRAMRGQVDYSKIMNGNLSAEIERFSAMFQEKKQEVQTAILRVDQLSQQLEDLKKGKLNGFQSYNGKLTGPAAVELKRLYQELQIRNQLNQEQNSKLQQQKELLNKRNMEVAMMDKRISELRERLYGKKIQLNRVNGTSSPQSPLSTSGRVAAVGPYIQVPSAGSFPVLGDPIKPQSLSIASNAAHGRSKSANDGNWPTLKQNSSSSVKPVQVAGADWKDPSVEGSVKQGTVSSQPVPFSALGPTEKPGIEIGKVPPPIPGVGKQLPPSYGTYPSPTPLGPGSTSSLERRKEGSLPRPSAGLPSRQRPTLLPATGSTPQPGSSQQIQQRISVPPSPTYPPAGPPAFPAGDSKPELPLTVAIRPFLADKGSRPQSPRKGPQTVNSSSIYSMYLQQATPPKNYQPAAHSALNKSVKAVYGKPVLPSGSTSPSPLPFLHGSLSTGTPQPQPPSESTEKEPEQDGPAAPADGSTVESLPRPLSPTKLTPIVHSPLRYQSDADLEALRRKLANAPRPLKKRSSITEPEGPGGPNIQKLLYQRFNTLAGGMEGTPFYQPSPSQDFMGTLADVDNGNTNANGNLEELPPAQPTAPLPAEPAPSSDANDNELPSPEPEELICPQTTHQTAEPAEDNNNNVATVPTTEQIPSPVAEAPSPGEEQVPPAPLPPASHPPATSTNKRTNLKKPNSERTGHGLRVRFNPLALLLDASLEGEFDLVQRIIYEVEDPSKPNDEGITPLHNAVCAGHHHIVKFLLDFGVNVNAADSDGWTPLHCAASCNSVHLCKQLVESGAAIFASTISDIETAADKCEEMEEGYIQCSQFLYGVQEKLGVMNKGVAYALWDYEAQNSDELSFHEGDALTILRRKDESETEWWWARLGDREGYVPKNLLGLYPRIKPRQRTLA", "values": [
      {"measurement": "increase in apoptosis", "setting": "Saos-2 cells", "value": "2-3 fold"},
      {"measurement": "stimulation of the Bax promoter", "setting": "p53", "value": "10-50 fold"},
      {"measurement": "apoptotic cells versus vector alone transfected cells", "setting": "H1299 cells", "value": "3-7 fold"}
    ]}
  ]
}
